Measurements published in the supplement of paper PMC12067093, “Discovery and optimisation of a covalent ligand for TRIM25 and its application to targeted protein ubiquitination” (Chemical Science, 2025).
This is one part of the list.

Sequences of proteins named here, by UniProt entry; tags and fusion partners are left off. A change or cut given only in a name is not applied to a line headed by its entry.
UniProt Q10570: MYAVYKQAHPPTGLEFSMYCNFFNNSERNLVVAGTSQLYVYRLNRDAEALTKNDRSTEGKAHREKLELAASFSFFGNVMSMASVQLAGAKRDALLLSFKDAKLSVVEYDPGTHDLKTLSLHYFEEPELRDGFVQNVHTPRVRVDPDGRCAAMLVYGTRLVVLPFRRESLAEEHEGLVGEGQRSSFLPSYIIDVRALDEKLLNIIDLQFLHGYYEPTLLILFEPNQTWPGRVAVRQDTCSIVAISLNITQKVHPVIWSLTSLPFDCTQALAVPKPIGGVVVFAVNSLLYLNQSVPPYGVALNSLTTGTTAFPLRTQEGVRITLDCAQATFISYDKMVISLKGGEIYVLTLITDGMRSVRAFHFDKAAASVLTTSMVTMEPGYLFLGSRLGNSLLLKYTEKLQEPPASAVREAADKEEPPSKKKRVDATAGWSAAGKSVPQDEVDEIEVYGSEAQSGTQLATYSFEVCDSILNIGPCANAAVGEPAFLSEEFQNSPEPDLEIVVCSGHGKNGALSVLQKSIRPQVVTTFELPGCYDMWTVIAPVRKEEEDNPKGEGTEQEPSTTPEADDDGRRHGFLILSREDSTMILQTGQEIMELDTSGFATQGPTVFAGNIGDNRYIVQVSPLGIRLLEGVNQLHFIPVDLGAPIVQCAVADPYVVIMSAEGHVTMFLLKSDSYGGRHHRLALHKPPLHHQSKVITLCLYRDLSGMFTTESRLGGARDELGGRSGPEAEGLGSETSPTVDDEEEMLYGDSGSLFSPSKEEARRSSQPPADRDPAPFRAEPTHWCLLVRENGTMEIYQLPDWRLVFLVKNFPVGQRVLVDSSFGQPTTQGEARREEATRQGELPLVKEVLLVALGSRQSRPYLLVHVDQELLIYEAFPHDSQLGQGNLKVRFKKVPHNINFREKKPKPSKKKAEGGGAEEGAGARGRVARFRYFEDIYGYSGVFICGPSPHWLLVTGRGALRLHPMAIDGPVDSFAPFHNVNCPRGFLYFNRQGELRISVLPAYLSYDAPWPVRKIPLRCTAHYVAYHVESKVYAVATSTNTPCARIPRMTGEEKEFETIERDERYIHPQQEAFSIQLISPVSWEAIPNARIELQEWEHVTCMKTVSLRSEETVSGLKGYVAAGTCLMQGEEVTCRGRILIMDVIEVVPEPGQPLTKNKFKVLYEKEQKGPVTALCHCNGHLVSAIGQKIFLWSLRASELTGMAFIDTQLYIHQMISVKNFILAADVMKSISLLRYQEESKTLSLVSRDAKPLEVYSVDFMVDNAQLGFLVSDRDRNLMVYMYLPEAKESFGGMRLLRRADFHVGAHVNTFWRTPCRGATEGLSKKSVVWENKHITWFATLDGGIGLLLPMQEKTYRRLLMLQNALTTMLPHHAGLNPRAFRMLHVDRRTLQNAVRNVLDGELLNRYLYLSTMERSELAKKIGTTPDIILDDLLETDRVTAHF
UniProt Q9UKF6: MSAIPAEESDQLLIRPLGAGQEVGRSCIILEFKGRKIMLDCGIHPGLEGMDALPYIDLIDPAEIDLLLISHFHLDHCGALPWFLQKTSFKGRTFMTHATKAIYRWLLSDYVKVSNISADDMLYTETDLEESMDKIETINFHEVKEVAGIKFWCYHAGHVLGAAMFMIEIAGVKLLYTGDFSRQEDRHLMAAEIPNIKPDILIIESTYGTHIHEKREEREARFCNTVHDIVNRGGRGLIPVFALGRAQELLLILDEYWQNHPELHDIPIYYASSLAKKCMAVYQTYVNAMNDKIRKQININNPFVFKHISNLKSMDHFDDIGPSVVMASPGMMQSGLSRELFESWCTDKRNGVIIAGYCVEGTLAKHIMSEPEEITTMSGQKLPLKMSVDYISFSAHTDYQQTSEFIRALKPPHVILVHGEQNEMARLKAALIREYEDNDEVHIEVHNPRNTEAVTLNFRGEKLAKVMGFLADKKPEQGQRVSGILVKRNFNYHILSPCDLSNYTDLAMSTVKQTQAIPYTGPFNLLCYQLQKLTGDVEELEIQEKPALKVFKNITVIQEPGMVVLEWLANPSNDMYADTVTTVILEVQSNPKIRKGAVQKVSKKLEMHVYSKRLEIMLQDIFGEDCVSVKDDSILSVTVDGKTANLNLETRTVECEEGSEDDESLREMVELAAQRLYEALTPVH
UniProt Q9Y4K1: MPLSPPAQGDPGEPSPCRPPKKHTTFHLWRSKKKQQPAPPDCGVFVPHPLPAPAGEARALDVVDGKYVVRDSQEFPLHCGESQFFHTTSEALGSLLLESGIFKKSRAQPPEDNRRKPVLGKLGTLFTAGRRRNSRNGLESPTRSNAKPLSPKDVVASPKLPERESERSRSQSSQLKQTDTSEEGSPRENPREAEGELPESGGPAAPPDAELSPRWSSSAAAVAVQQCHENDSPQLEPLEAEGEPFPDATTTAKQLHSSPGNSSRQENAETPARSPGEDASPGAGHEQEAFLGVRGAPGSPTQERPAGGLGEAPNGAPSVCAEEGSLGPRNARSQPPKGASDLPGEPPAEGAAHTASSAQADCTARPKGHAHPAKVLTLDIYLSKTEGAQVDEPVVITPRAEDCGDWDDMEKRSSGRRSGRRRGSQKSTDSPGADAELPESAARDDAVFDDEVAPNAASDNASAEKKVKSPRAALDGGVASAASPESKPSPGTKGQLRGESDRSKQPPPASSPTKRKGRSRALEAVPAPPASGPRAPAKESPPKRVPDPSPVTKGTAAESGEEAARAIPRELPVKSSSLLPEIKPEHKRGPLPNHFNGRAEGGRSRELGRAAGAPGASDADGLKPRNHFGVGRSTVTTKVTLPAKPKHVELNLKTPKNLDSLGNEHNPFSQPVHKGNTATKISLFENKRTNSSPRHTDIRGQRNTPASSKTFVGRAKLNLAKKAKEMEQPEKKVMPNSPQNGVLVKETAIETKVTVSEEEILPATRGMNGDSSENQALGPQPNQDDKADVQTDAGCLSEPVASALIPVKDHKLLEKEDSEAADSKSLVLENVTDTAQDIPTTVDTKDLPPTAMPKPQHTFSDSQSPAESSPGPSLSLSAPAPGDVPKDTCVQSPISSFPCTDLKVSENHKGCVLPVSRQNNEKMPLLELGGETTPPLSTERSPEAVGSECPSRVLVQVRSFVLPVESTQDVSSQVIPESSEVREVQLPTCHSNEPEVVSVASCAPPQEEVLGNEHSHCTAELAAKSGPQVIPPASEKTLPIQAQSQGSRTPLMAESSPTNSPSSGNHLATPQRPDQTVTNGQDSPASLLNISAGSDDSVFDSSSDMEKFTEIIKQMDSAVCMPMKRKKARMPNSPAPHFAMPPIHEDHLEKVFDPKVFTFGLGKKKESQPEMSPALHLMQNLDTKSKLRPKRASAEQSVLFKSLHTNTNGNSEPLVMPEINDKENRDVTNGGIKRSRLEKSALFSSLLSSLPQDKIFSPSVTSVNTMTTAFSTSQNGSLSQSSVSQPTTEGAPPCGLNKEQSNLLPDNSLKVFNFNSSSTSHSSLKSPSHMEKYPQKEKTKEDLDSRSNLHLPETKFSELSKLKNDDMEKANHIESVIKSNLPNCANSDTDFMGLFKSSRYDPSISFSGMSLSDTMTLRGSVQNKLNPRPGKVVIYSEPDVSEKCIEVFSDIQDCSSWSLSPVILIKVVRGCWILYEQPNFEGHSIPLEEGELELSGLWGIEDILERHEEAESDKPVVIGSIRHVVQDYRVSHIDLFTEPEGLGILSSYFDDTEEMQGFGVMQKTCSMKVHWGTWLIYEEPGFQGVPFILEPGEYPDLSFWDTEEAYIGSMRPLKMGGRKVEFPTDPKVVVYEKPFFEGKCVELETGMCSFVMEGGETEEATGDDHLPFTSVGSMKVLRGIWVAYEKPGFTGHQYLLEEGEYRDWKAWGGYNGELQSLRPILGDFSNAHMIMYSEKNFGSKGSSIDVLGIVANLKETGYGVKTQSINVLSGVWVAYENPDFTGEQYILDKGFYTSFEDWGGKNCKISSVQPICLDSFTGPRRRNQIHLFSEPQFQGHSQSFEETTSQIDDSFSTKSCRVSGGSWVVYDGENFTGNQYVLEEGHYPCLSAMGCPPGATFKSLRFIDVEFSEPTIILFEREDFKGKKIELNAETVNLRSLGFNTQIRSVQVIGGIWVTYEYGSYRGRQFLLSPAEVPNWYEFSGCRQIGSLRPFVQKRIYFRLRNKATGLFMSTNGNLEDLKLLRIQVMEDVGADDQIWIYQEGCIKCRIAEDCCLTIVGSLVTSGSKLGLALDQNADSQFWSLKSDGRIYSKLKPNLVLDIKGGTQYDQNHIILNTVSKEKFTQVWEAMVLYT
UniProt P57737: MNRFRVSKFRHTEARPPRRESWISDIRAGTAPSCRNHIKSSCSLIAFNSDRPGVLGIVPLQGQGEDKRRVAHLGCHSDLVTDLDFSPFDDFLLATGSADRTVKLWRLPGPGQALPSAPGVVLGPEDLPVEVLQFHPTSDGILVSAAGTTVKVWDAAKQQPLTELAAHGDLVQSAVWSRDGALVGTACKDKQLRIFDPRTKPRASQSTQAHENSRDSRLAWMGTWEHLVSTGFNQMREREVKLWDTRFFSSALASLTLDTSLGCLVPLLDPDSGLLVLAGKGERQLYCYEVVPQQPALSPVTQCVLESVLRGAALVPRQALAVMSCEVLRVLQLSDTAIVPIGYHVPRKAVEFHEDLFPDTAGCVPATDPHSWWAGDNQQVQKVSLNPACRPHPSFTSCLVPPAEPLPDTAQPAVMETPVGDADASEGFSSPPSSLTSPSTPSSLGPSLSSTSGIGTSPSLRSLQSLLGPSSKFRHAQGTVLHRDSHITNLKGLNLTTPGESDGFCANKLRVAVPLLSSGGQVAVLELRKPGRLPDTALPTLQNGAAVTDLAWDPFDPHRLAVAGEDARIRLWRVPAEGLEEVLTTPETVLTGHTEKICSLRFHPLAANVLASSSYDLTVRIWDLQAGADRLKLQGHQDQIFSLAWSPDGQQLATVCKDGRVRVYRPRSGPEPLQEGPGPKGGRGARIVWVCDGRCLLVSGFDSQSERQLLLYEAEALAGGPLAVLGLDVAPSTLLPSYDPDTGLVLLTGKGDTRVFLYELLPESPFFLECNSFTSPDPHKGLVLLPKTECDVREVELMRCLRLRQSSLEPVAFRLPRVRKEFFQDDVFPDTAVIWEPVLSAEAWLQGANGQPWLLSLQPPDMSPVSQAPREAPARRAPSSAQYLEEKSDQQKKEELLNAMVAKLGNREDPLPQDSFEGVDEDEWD
UniProt P23786: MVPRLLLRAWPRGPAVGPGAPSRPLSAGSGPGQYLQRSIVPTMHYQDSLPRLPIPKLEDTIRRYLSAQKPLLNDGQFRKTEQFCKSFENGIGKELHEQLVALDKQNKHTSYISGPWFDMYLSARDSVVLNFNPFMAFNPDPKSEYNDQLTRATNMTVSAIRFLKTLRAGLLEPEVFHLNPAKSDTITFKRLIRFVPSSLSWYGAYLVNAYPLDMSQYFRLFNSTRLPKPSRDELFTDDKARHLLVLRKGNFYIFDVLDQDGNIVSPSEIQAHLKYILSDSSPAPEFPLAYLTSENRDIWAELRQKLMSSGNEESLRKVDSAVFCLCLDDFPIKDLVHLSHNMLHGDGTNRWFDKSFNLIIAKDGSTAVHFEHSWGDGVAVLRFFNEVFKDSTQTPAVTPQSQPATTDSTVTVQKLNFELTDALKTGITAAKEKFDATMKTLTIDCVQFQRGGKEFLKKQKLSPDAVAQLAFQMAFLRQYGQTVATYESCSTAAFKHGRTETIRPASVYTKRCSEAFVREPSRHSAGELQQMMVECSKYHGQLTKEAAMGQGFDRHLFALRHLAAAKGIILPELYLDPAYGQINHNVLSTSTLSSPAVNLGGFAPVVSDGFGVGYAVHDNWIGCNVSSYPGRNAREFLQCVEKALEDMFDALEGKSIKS
UniProt P52943: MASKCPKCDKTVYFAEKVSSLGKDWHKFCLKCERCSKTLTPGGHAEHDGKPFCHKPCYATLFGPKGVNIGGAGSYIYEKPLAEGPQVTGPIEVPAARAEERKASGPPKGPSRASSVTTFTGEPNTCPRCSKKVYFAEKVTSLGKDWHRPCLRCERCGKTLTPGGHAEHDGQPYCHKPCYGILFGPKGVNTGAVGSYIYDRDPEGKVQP
UniProt P48730: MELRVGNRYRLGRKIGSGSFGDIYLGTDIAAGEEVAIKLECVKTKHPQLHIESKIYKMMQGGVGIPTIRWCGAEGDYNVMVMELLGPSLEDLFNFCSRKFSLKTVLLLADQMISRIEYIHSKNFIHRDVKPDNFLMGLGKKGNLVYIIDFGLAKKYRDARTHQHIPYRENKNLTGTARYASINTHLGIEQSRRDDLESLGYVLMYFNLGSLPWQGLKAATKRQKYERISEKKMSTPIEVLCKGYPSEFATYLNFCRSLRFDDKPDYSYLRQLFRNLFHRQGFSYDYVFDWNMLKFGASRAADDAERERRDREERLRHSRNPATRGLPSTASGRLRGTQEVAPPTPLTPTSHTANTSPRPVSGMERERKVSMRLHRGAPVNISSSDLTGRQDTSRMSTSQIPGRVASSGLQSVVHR

What follows are targets tested with CC1Cc2ccccc2N1C(=O)C1CCCN(C1)C(=O)CCl (mixture of isomers) [TRIM25 ligand 11 (diastereomer mixture)] (assay: probe-labelled cysteine peptide fold change vs DMSO (competition) (log2 fold change); higher = less target engagement (more negative = stronger competition)). Conditions: 10 µM; THP-1; incubation time: 4 h.
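Note: competitive chemoproteomic profiling in live THP-1 cells with an iodoacetamide desthiobiotin (IA-DTB) probe, comparing probe-labelled peptide intensities in compound-treated cells against DMSO-treated controls.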

Target	probe-labelled cysteine peptide fold change
CSDE1_O75534_53_LFFHCSQYNGNLQDLK (UniProt O75534)	0.322
COQ9_O75208_153_DGSELILHFVTQCNTR (UniProt O75208)	-0.0441
CPSF2_Q9P2I0_522_CISTTESIEIK (UniProt Q9P2I0)	-0.00754
CPSF1_Q10570_324_ITLDCAQATFISYDK (UniProt Q10570)	0.00457
CRYL1_Q9Y2S2_125_VILSSSTSCLMPSK (UniProt Q9Y2S2)	-0.101
CPSF3_Q9UKF6_655_TVECEEGSEDDESLREMVELAAQR (UniProt Q9UKF6)	-0.0205
CTCF_P49711_557_YHDPNFVPAAFVCSK (UniProt P49711)	-0.0756
CRYZL1_O95825_302_YLCILK (UniProt O95825)	-0.0748
CRYBG1_Q9Y4K1_1404_ISSVQPICLDSFTGPR (UniProt Q9Y4K1)	0.199
CORO7_P57737_389_VSLNPACR (UniProt P57737)	0.0924
CPSF1_Q10570_1102_IELQEWEHVTCMK (UniProt Q10570)	0.0551
CPT2_P23786_512_CSEAFVREPSR (UniProt P23786)	-0.197
CPD_O75976_195_EGDCGFGDGGPSGASGR (UniProt O75976)	0.275
CPT2_P23786_535_HSAGELQQMMVECSK (UniProt P23786)	-0.00982
CRIP2_P52943_150_DWHRPCLR (UniProt P52943)	0.642
CORO1B_Q9BR76_195_LDSLHPDLIYNVSWNHNGSLFCSACK (UniProt Q9BR76)	0.371
CPVL_Q9H3G5_320_CTEPEDQLYYVK (UniProt Q9H3G5)	-0.0111
COQ8A_Q8NI60_641_AMFEEAYSNYCK (UniProt Q8NI60)	0.0929
CRYBG1_Q9Y4K1_541_SPEAVGSECPSR (UniProt Q9Y4K1)	0.0881
CPSF3_Q9UKF6_223_FCNTVHDIVNR (UniProt Q9UKF6)	-0.0667

Target	probe-labelled cysteine peptide fold change
CRYBG3_Q68DQ2_474_HEHLQLPESECSDK (UniProt Q68DQ2)	0.101
CSTF1_Q05048_415_CIVHSPTNPGFMTCSDDFR (UniProt Q05048)	-0.151
CSK_P41240_422_NCWHLDAAMRPSFLQLR (UniProt P41240)	-0.104
CROT_Q9UKG9_210_AFVFDVIHEGCLVTPPELLR (UniProt Q9UKG9)	-0.043
CSDE1_O75534_645_GDCLQK (UniProt O75534)	0.0331
CST3_P01034_109_TQPNLDNCPFHDQPHLK (UniProt P01034)	-0.0536
CRACR2A_Q9BSW2_220_NELECALK (UniProt Q9BSW2)	-0.0901
CSNK1D_P48730_241_KMSTPIEVLCK (UniProt P48730)	-0.256
CTNNBL1_Q8WYA6_320_RHNPSTAEEQEMMENLFDSLCSCLMLSSNR (UniProt Q8WYA6)	0.0709
CORO7_P57737_505_GLNLTTPGESDGFCANK (UniProt P57737)	0.0263
CSDE1_O75534_730_CSACNVWR (UniProt O75534)	0.0252
CORO1A_P31146_285_HLEEPLSLQELDTSSGVLLPFFDPDTNIVYLCGK (UniProt P31146)	-0.00211
CSNK1D_P48730_241_MSTPIEVLCK (UniProt P48730)	-0.145
CPSF2_Q9P2I0_763_IGLEGCLCQDFYR (UniProt Q9P2I0)	0.0937
CTBS_Q01459_93_YDSELMCYAHSK (UniProt Q01459)	0.0533
CSMD2_Q7Z408-3_2_CDAHLR (UniProt Q7Z408)	-0.56
CORO1A_P31146_345_CEPIAMTVPR (UniProt P31146)	-0.0921
CPT1A_P50416_586_FCLTYEASMTR (UniProt P50416)	0.307
CPSF1_Q10570_1020_CTAHYVAYHVESK (UniProt Q10570)	0.0805
